From PubChem BioAssay record AID504749 (NCATS, 2011).

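Malaria parasite (P. falciparum) lines kept in red blood cells; parasite DNA is measured by SYBR Green fluorescence after lysis, 72 h after compound addition.
Each compound was titrated across a series from about 0.000037 to 29 µM.
The number is the fitted AC50, the concentration giving a half-maximal change in signal; a lower value means higher potency, whether the curve shows a decrease or an increase.
Calls follow the curve class and fit quality: every row here is inconclusive, covering signal-raising curves and weak, poorly fitted, partial or highest-dose-only inhibition curves.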

Values are in µM.
All entries here are filed as inconclusive.
Only part of the assay is shown, chiefly results filed as inconclusive.
Potencies fitted to partial, single-point or poorly fitting curves are rough.
The first word of each remark tells which way the curve ran; it can be opposite to the aim of the assay.

structure,tested on / at,fitted potency (µM),curve as filed
Oc1ccc2c3c1O[C@H]1[C@@H](O)CC[C@@]4(O)C(C2)N(CC2CCC2)CCC314 (stereo not given in full),7G8,17.78,"inhibitor, single point"
Fc1ccc(C(OCCN2CCN(CCCc3ccccc3)CC2)c2ccc(F)cc2)cc1,CP268,15.1,"inhibitor, single point"
Fc1ccc(C(OCCN2CCN(CCCc3ccccc3)CC2)c2ccc(F)cc2)cc1,CP315,19.01,"inhibitor, single point"
Fc1ccc(C(OCCN2CCN(CCCc3ccccc3)CC2)c2ccc(F)cc2)cc1,FAB9,17.78,"inhibitor, single point"
Fc1ccc(C(OCCN2CCN(CCCc3ccccc3)CC2)c2ccc(F)cc2)cc1,CP194,16.94,"inhibitor, single point"
Fc1ccc(C(OCCN2CCN(CCCc3ccccc3)CC2)c2ccc(F)cc2)cc1,CP266,15.1,"inhibitor, partial curve, poor fit"
Fc1ccc(C(OCCN2CCN(CCCc3ccccc3)CC2)c2ccc(F)cc2)cc1,CP297,15.1,"inhibitor, single point"
Fc1ccc(C(OCCN2CCN(CCCc3ccccc3)CC2)c2ccc(F)cc2)cc1,CP192,16.94,"inhibitor, single point"
Fc1ccc(C(OCCN2CCN(CCCc3ccccc3)CC2)c2ccc(F)cc2)cc1,CP250,10,"inhibitor, single point"
Fc1ccc(C(OCCN2CCN(CCCc3ccccc3)CC2)c2ccc(F)cc2)cc1,CP265,10,"inhibitor, single point"
Fc1ccc(C(OCCN2CCN(CCCc3ccccc3)CC2)c2ccc(F)cc2)cc1,CP201,16.94,"inhibitor, single point"
Fc1ccc(C(OCCN2CCN(CCCc3ccccc3)CC2)c2ccc(F)cc2)cc1,CP329,19.01,"inhibitor, single point"
Fc1ccc(C(OCCN2CCN(CCCc3ccccc3)CC2)c2ccc(F)cc2)cc1,DIV30,0.5358,"inhibitor, full curve, poor fit"
Fc1ccc(C(OCCN2CCN(CCCc3ccccc3)CC2)c2ccc(F)cc2)cc1,Dd2,4.467,"inhibitor, partial curve, poor fit"
Fc1ccc(C(OCCN2CCN(CCCc3ccccc3)CC2)c2ccc(F)cc2)cc1,CP256,10,"inhibitor, single point"
Fc1ccc(C(OCCN2CCN(CCCc3ccccc3)CC2)c2ccc(F)cc2)cc1,CP215,19.01,"inhibitor, single point"
C#C[C@]1(O)CC[C@H]2[C@H]3[C@H](CC[C@@]21C)C1=C(CC(=O)CC1)C[C@@H]3C,CP247,3.548,"inhibitor, single point"
C#C[C@]1(O)CC[C@H]2[C@H]3[C@H](CC[C@@]21C)C1=C(CC(=O)CC1)C[C@@H]3C,DIV30,21.33,"inhibitor, single point"
C[C@@H]1C[C@H]2[C@@H]3CCC4=CC(=O)C=C[C@]4(C)[C@@]3(F)[C@@H](O)C[C@]2(C)[C@H]1C(=O)CO,HB3,11.22,"inhibitor, single point"
C[C@@H]1C[C@H]2[C@@H]3CCC4=CC(=O)C=C[C@]4(C)[C@@]3(F)[C@@H](O)C[C@]2(C)[C@H]1C(=O)CO,CP192,19.01,"inhibitor, single point"
C[C@@H]1C[C@H]2[C@@H]3CCC4=CC(=O)C=C[C@]4(C)[C@@]3(F)[C@@H](O)C[C@]2(C)[C@H]1C(=O)CO,W2,13.46,"inhibitor, single point"
C[C@@H]1C[C@H]2[C@@H]3CCC4=CC(=O)C=C[C@]4(C)[C@@]3(F)[C@@H](O)C[C@]2(C)[C@H]1C(=O)CO,CP266,0.4775,"inhibitor, full curve, poor fit"
C[C@@H]1C[C@H]2[C@@H]3CCC4=CC(=O)C=C[C@]4(C)[C@@]3(F)[C@@H](O)C[C@]2(C)[C@H]1C(=O)CO,PC26,16.94,"inhibitor, single point"
C[C@@H]1C[C@H]2[C@@H]3CCC4=CC(=O)C=C[C@]4(C)[C@@]3(F)[C@@H](O)C[C@]2(C)[C@H]1C(=O)CO,CP291,19.01,"inhibitor, partial curve, poor fit"
C[C@@H]1C[C@H]2[C@@H]3CCC4=CC(=O)C=C[C@]4(C)[C@@]3(F)[C@@H](O)C[C@]2(C)[C@H]1C(=O)CO,N140,11.22,"inhibitor, single point"
C[C@@H]1C[C@H]2[C@@H]3CCC4=CC(=O)C=C[C@]4(C)[C@@]3(F)[C@@H](O)C[C@]2(C)[C@H]1C(=O)CO,CP203,21.33,"inhibitor, partial curve, poor fit"
C[C@@H]1C[C@H]2[C@@H]3CCC4=CC(=O)C=C[C@]4(C)[C@@]3(F)[C@@H](O)C[C@]2(C)[C@H]1C(=O)CO,GB4,12,"inhibitor, partial curve, poor fit"
C[C@@H]1C[C@H]2[C@@H]3CCC4=CC(=O)C=C[C@]4(C)[C@@]3(F)[C@@H](O)C[C@]2(C)[C@H]1C(=O)CO,PAD,10,"inhibitor, single point"
C[C@@H]1C[C@H]2[C@@H]3CCC4=CC(=O)C=C[C@]4(C)[C@@]3(F)[C@@H](O)C[C@]2(C)[C@H]1C(=O)CO,ICS,11.22,"inhibitor, single point"
C[C@@H]1C[C@H]2[C@@H]3CCC4=CC(=O)C=C[C@]4(C)[C@@]3(F)[C@@H](O)C[C@]2(C)[C@H]1C(=O)CO,DIV30,15.1,"inhibitor, single point"
C[C@@H]1C[C@H]2[C@@H]3CCC4=CC(=O)C=C[C@]4(C)[C@@]3(F)[C@@H](O)C[C@]2(C)[C@H]1C(=O)CO,CP237,17.78,"inhibitor, single point"
C[C@@H]1C[C@H]2[C@@H]3CCC4=CC(=O)C=C[C@]4(C)[C@@]3(F)[C@@H](O)C[C@]2(C)[C@H]1C(=O)CO,P93_24,11.22,"inhibitor, single point"
C[C@@H]1C[C@H]2[C@@H]3CCC4=CC(=O)C=C[C@]4(C)[C@@]3(F)[C@@H](O)C[C@]2(C)[C@H]1C(=O)CO,DIV17,19.01,"inhibitor, single point"
C[C@@H]1C[C@H]2[C@@H]3CCC4=CC(=O)C=C[C@]4(C)[C@@]3(F)[C@@H](O)C[C@]2(C)[C@H]1C(=O)CO,TAB165,10,"inhibitor, single point"
C[C@@H]1C[C@H]2[C@@H]3CCC4=CC(=O)C=C[C@]4(C)[C@@]3(F)[C@@H](O)C[C@]2(C)[C@H]1C(=O)CO,CP297,19.01,"inhibitor, single point"
O=C(O)Cc1sc(-c2ccc(Cl)cc2)nc1-c1ccccc1,CP215,0.0005,activator
CCCCCCCCCCCCCC[N+](C)(C)C,JCK,11.22,"inhibitor, single point"
CCCCCCCCCCCCCC[N+](C)(C)C,PC15,0.1585,"inhibitor, full curve, poor fit"
Cc1c(OCC(F)(F)F)ccnc1CS(=O)c1nc2ccccc2[nH]1 (stereo not given),W2,12,"inhibitor, single point"
Cc1c(OCC(F)(F)F)ccnc1CS(=O)c1nc2ccccc2[nH]1 (stereo not given),ICS,8.912,"inhibitor, single point"
Cc1c(OCC(F)(F)F)ccnc1CS(=O)c1nc2ccccc2[nH]1 (stereo not given),7G8,12.59,"inhibitor, partial curve, poor fit"
Cc1c(OCC(F)(F)F)ccnc1CS(=O)c1nc2ccccc2[nH]1 (stereo not given),DIV14,19.01,"inhibitor, partial curve, poor fit"
NCCS(=O)(=O)O,W2,3.381,"inhibitor, single point"

Some entries from above, unchanged:

* C[C@@H]1C[C@H]2[C@@H]3CCC4=CC(=O)C=C[C@]4(C)[C@@]3(F)[C@@H](O)C[C@]2(C)[C@H]1C(=O)CO [CP297] | fitted potency 19.01 µM (inhibitor, single point)
* CCCCCCCCCCCCCC[N+](C)(C)C [PC15] | fitted potency 0.1585 µM (inhibitor, full curve, poor fit)
* Cc1c(OCC(F)(F)F)ccnc1CS(=O)c1nc2ccccc2[nH]1 (stereo not given) [ICS] | fitted potency 8.912 µM (inhibitor, single point)
* C[C@@H]1C[C@H]2[C@@H]3CCC4=CC(=O)C=C[C@]4(C)[C@@]3(F)[C@@H](O)C[C@]2(C)[C@H]1C(=O)CO [PAD] | fitted potency 10 µM (inhibitor, single point)